Reference: US6939882B1 (priority 1999, dated 2005)
Some results were stated once for a whole list of compounds, not compound by compound. For at least one compound, name, drawing or mass did not settle the structure.

What follows are molecules tested on Erysiphe graminis f. sp. tritici. Details: in vivo.
With O=[N+]([O-])c1ccccc1C=NOc1ncc(C(F)(F)F)cc1Cl [Compound 928] the “score of disease control (degree of infection visually estimated)” value (from here on “score of disease control”) was 2. In the case of N#CC(=NOc1ncc(C(F)(F)F)cc1Cl)c1ccccc1 [Compound 926], the “score of disease control” value is reported as 2. In the case of O=[N+]([O-])c1cccc(C=NOc2ncc(C(F)(F)F)cc2Cl)c1 [Compound 923], the “score of disease control” value is reported as 2. For CC(=NOc1ncc(C(F)(F)F)cc1Cl)c1ccccc1 [Compound 927], the “score of disease control” value was 2. For CC(=NOc1ncc(C(F)(F)F)cc1Cl)c1ccc(-c2ccccc2)cc1 [Compound 936, 1-Biphenylyl-1-ethanone O-1-[3-chloro-5-(trifluoromethyl)-2-pyridyl] oxime], the “score of disease control” value was 2. With O=C(Nc1ncc(C(F)(F)F)cc1Cl)Nc1c(Cl)cccc1Cl [Compound 501, N-[2-Chloro-5-(tifluoromethyl)-2-pyridyl]-N′-(2,6-dichlorophenyl)urea] the “score of disease control” value was 2. In the case of FC(F)(F)c1cnc(ON=C2CCOc3ccccc32)c(Cl)c1 [Compound 1104], the “score of disease control” value is reported as 2. For FC(F)(F)c1cnc(ON=C2CCCC3CCCCC23)c(Cl)c1 (stereo not drawn) [Compound 1107], the “score of disease control” value was 2. With CC(=NOc1ncc(C(F)(F)F)cc1Cl)c1cccc(Cl)c1Cl [Compound 954] the “score of disease control” value was 2. For CC(=NOc1ncc(Cl)cc1Cl)c1ccccc1Cl [Compound 935], the “score of disease control” value was 2. CC(=NOc1ncc(C(F)(F)F)cc1Cl)c1c(C)nsc1C [Compound 952] was tested, and the “score of disease control” value was 2. COc1ccc2c(c1)C(=NOc1ncc(C(F)(F)F)cc1Cl)CCC2 [Compound 1102] was tested, and the “score of disease control” value was 2. In the case of Cc1cccc(C=NOc2ncc(C(F)(F)F)cc2Cl)c1 [Compound 930], the “score of disease control” value is reported as 2. CC(=NOc1ncc(C(F)(F)F)cc1Cl)c1cccn1C [Compound 906] was tested, and the “score of disease control” value was 2. In the case of FC(F)(F)c1cnc(ON=Cc2ccccc2Cl)c(Cl)c1 [Compound 929], the “score of disease control” value is reported as 2. In the case of FC(F)(F)c1cnc(ON=Cc2cccnc2)c(Cl)c1 [Compound 931], the “score of disease control” value is reported as 2. In the case of FC(F)(F)c1cnc(ON=Cc2cccc3ccccc23)c(Cl)c1 [Compound 933], the “score of disease control” value is reported as 2. For CC(=NOc1ncc(C(F)(F)F)cc1Cl)c1ccccc1Cl [Compound 901], the “score of disease control” value was 2.
